Measured values: publication PMC3400628
Results are given in words; binding and its absence hold for the method and conditions named. For part of these data: Binding seen in cells or lysates may run through a third protein. Some binding calls cover weakened binding; strength is not graded here. For part of these data: Tags and fused reporters may be left off the sequences shown.

Sequences of proteins named here, by UniProt entry; tags and fusion partners are left off.
UniProt Q86XT4: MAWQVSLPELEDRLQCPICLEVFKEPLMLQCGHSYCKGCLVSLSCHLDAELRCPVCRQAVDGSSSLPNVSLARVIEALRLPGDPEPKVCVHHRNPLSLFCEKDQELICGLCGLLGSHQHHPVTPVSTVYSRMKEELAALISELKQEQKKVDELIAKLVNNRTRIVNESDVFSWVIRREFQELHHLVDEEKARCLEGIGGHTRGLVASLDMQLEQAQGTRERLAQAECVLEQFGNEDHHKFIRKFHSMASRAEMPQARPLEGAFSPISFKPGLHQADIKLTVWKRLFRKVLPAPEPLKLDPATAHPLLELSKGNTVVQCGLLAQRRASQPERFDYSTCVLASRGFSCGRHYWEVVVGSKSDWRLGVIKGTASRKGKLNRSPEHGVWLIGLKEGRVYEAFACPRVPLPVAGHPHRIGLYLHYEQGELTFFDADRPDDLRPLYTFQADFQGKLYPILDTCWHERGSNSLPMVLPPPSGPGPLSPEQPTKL

How the values were obtained:
myc-TRIM27 WT (human) = target: T1, myc-TRIM27 WT (human) (UniProt P14373); experiment: co-IP; reciprocal: HEK293T transiently transfected; myc-tagged TRIM27 precipitated with anti-myc beads (9E10) 3 h at 4°C; immunoblot
T1 sequence: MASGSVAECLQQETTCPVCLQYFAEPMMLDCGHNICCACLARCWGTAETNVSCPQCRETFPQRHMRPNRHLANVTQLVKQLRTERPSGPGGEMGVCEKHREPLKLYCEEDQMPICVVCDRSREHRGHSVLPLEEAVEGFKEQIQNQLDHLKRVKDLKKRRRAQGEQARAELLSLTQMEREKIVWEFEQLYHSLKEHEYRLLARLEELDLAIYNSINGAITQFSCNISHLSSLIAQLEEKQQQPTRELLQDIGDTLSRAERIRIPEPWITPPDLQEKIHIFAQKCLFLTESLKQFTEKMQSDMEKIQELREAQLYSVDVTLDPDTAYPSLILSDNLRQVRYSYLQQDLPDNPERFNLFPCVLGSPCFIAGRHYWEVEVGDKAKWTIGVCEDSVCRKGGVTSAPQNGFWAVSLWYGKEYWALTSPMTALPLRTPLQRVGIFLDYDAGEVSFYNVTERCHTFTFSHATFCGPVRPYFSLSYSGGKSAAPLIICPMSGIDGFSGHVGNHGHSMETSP

[1] = target: T2, human TRIM27 (yeast two-hybrid fusion) (human) (UniProt P14373); experiment: two-hybrid; binary LexA/B42 yeast two-hybrid; baits in pEG202, preys in pJG4-5; EGY42/EGY48 diploids by mating; reporters lacZ (blue colonies) and LEU2 (growth without Leu)
T2 sequence: T1 sequence

[2] = target: human TRIM50 (yeast two-hybrid fusion) (human) (UniProt Q86XT4); experiment: as above
[3] = target: T3, GST-TRIM27 ΔRING+B-Box (human) (UniProt P14373); experiment: pull-down; GST or GST-TRIM27 proteins on glutathione-Sepharose beads; [35S]-labeled IVT NOD2 diluted three times in PBS, 2 h at 4°C; five washes with RIPA buffer; autoradiograph; only the target purified
T3 sequence: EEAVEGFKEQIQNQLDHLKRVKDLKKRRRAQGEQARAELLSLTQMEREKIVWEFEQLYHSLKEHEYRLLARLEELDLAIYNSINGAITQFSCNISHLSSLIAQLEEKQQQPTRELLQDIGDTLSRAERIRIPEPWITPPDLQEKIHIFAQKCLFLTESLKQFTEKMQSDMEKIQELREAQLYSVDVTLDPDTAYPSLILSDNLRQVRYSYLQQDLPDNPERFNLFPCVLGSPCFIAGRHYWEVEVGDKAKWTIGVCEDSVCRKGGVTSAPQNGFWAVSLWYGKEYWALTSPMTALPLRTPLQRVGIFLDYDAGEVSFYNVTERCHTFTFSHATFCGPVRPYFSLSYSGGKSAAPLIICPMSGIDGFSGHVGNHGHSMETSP

GST-TRIM27 WT (human) = target: T4, GST-TRIM27 WT (human) (UniProt P14373); experiment: as above
T4 sequence: T1 sequence

GST-TRIM27 ΔRING (human) = target: T5, GST-TRIM27 ΔRING (human) (UniProt P14373); experiment: as above
T5 sequence: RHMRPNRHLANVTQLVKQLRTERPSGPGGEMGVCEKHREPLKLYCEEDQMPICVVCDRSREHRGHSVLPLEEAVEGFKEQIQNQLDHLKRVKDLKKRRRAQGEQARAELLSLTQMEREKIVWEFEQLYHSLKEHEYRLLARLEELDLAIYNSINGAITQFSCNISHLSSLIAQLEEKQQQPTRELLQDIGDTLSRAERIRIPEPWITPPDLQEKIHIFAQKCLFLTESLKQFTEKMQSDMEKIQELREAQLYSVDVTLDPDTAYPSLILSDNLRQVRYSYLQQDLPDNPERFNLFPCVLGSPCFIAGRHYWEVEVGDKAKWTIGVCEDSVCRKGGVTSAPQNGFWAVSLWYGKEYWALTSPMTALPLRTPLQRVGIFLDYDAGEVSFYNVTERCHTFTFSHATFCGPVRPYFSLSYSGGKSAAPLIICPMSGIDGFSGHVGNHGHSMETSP

Flag-NOD2 (from UniProt Q9HC29 1-1040)
binding (myc-TRIM27 WT (human)): binds

human NOD2 full length (yeast two-hybrid fusion) (from UniProt Q9HC29 1-1040)
binding [1]: binds

human TRIM50 (yeast two-hybrid fusion) (from UniProt Q86XT4 1-487)
binding [2]: binds

in vitro transcribed and translated [35S]-methionine-labeled NOD2 (from UniProt Q9HC29 1-1040)
binding [3]: binds
binding (GST-TRIM27 WT (human)): binds
binding (GST-TRIM27 ΔRING (human)): binds
